Measured values from the supplement of paper PMC10849652.
The other results are listed elsewhere or left out.

The chains behind the UniProt entries cited, without tags or fusion partners. Where a name states a change or a piece, a line headed by the entry shows the natural chain unless it says otherwise.
UniProt Q9BZL6: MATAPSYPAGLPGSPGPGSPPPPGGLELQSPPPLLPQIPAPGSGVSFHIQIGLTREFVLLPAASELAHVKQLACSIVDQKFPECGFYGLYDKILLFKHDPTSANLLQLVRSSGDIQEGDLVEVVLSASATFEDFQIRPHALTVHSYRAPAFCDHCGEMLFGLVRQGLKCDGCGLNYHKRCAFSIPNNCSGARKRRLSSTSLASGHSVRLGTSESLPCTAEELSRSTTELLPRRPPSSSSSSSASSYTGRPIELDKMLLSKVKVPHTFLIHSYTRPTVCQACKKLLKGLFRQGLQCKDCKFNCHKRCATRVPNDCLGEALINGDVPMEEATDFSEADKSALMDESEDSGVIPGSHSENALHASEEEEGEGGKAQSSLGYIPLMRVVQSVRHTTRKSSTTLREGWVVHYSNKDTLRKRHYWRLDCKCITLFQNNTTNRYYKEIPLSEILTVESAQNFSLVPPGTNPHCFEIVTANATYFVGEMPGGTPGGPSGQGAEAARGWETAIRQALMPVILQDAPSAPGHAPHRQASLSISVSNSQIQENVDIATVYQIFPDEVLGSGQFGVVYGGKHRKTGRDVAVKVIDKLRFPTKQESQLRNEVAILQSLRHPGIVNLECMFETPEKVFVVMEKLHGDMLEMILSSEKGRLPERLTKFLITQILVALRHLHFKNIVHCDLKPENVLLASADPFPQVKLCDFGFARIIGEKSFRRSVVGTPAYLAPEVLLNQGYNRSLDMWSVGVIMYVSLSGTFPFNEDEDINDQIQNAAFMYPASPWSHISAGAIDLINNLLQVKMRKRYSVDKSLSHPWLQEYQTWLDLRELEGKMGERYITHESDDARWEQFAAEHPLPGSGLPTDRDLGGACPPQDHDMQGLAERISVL
UniProt P48147: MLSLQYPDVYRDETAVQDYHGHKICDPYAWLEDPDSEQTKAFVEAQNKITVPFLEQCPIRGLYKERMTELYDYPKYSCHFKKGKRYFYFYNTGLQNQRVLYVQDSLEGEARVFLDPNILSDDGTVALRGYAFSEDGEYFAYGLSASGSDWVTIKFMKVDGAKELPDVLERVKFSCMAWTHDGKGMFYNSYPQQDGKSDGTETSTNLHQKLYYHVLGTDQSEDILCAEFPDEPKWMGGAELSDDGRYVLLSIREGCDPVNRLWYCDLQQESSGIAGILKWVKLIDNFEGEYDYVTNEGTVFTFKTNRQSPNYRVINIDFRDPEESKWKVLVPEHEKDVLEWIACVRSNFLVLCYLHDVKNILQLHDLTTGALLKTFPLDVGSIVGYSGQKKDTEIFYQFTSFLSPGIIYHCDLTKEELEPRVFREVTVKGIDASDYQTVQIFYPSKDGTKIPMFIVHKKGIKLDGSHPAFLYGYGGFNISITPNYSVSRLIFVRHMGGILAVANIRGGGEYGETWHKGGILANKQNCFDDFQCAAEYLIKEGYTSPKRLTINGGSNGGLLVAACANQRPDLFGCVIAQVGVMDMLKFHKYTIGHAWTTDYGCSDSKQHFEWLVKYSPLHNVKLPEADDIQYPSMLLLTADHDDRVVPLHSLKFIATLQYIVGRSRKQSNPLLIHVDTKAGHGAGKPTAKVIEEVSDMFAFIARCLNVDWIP
UniProt Q15172: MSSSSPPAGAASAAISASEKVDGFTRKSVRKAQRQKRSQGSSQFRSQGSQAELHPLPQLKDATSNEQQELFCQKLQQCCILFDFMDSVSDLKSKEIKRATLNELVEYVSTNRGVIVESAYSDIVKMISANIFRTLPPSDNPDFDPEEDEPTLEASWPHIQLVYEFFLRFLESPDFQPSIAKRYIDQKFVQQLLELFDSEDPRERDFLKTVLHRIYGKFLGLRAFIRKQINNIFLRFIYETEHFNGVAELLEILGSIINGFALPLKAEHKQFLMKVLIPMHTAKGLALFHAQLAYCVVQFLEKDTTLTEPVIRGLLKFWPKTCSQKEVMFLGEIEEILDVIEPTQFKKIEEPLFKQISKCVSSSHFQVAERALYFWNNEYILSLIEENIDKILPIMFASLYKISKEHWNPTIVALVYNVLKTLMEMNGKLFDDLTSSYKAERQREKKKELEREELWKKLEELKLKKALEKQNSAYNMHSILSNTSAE
UniProt Q14738, whole entry, looked up: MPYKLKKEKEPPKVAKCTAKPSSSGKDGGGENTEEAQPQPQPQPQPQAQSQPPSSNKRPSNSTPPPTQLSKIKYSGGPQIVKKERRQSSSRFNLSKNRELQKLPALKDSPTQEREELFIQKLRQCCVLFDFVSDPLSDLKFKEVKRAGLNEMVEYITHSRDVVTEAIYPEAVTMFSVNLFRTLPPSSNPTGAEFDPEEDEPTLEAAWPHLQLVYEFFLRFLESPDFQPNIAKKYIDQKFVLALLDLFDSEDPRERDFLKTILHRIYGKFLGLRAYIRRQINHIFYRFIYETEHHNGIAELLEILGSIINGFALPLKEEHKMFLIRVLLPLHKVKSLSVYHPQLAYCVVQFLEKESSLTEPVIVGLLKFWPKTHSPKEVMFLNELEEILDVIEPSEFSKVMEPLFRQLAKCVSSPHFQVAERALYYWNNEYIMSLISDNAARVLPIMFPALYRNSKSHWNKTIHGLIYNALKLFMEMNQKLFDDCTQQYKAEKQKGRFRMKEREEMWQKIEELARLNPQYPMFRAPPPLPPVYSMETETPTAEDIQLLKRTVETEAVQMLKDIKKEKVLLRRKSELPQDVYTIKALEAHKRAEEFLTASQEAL
UniProt O43663: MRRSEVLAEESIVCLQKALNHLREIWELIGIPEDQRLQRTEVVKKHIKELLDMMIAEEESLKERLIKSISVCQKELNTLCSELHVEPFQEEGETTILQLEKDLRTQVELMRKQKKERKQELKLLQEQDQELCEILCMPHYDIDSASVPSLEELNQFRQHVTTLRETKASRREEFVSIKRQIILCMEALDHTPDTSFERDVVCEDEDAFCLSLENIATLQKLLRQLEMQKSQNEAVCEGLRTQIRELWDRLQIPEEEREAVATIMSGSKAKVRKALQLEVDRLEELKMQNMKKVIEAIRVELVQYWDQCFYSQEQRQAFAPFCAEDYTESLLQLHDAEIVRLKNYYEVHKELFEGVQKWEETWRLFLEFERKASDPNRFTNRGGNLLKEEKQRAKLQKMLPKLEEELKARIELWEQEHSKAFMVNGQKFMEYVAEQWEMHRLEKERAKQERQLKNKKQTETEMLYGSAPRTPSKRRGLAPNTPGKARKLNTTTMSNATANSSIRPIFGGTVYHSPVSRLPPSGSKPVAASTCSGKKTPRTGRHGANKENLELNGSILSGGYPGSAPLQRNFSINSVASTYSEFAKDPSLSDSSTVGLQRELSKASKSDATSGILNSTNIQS
UniProt P49593: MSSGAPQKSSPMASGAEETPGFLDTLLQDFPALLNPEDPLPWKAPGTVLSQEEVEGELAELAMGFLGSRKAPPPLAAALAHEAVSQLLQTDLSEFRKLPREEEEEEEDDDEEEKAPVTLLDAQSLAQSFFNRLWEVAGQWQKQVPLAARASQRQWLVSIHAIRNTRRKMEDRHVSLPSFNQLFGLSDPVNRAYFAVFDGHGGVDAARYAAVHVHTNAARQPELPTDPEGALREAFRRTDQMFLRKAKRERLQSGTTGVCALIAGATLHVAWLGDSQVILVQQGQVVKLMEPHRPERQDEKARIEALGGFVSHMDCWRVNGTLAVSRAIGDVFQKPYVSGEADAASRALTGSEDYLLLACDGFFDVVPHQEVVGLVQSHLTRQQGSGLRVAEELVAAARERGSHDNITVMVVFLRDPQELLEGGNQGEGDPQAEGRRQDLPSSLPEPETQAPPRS
UniProt P62140, whole entry, looked up: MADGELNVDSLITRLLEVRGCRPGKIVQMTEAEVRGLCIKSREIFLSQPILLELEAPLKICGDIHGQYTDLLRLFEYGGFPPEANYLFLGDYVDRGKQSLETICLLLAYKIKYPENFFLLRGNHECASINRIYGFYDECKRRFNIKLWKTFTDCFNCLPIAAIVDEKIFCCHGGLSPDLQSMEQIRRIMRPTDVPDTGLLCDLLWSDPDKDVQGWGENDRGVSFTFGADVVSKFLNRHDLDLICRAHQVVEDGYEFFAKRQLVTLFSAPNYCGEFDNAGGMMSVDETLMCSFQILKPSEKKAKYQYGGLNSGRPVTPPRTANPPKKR
UniProt O75400: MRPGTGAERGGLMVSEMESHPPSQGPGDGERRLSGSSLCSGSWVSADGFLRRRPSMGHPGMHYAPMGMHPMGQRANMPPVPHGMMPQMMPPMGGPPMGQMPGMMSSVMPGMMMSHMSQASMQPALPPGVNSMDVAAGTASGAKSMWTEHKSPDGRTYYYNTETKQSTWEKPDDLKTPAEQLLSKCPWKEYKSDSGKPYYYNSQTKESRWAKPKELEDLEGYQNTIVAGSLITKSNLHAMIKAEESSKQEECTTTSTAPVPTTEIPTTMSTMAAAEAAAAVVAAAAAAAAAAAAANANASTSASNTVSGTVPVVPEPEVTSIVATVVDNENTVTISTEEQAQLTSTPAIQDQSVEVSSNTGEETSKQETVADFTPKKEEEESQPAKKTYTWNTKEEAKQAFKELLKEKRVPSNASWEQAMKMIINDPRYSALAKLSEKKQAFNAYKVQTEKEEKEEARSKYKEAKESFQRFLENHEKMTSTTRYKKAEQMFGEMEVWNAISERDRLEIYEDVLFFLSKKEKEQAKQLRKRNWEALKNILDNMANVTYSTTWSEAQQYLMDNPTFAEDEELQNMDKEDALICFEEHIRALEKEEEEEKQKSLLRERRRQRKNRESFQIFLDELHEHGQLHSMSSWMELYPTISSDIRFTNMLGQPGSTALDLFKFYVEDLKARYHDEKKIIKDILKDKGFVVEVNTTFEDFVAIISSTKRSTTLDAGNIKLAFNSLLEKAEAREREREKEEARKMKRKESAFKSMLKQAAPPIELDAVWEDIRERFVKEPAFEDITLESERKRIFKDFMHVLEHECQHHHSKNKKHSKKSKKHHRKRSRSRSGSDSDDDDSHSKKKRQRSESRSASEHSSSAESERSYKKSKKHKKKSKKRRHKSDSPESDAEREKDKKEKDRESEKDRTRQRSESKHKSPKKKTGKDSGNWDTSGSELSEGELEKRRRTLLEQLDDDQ
UniProt P10644, whole entry, looked up: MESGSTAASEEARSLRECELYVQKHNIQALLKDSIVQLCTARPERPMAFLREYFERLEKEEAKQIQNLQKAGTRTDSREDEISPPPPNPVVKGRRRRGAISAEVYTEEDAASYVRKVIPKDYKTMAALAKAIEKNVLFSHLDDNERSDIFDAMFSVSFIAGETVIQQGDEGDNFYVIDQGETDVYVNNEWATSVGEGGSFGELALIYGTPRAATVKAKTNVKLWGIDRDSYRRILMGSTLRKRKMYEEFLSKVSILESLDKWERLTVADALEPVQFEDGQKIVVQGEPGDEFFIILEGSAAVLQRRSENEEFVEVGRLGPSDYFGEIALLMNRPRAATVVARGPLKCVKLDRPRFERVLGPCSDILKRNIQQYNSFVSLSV
UniProt Q9BZL4: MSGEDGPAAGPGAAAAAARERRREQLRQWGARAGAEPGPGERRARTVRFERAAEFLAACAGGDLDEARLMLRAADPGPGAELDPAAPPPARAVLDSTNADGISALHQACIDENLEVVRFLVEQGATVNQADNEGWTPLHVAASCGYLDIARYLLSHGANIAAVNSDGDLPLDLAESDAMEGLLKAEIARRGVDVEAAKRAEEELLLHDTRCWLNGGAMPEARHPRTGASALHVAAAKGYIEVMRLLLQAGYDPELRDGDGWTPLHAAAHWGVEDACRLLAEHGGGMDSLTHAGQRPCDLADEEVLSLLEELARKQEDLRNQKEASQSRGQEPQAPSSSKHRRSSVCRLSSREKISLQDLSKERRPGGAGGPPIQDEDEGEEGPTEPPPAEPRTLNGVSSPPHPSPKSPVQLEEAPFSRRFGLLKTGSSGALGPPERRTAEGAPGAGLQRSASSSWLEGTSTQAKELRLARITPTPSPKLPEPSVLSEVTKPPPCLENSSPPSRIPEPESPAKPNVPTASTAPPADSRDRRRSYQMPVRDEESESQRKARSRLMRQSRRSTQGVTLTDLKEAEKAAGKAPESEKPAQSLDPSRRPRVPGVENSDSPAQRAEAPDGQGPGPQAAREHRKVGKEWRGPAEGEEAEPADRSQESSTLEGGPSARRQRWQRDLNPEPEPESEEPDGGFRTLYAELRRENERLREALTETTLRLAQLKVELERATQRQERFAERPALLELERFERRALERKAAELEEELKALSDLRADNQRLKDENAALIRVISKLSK
UniProt Q12972: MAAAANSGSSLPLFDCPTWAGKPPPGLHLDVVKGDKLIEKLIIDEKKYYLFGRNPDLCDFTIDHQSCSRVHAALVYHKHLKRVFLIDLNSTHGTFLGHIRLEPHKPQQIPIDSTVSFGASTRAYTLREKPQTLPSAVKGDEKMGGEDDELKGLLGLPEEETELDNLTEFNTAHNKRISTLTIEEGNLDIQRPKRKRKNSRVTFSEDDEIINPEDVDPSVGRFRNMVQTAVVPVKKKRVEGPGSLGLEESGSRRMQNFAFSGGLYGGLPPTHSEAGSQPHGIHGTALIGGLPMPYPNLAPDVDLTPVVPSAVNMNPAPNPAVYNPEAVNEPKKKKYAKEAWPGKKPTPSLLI

Tests used:
Assay in all cases: log2 fold change, soluble protein after heating vs DMSO (PISA); higher = thermal stabilisation; K562 lysate, 10 uM; active = over 0.2 and 3.5 SD of the protein, either way, in both replicates (recomputed)
alvocidib = compound: CN1CC[C@H](c2c(O)cc(O)c3c(=O)cc(-c4ccccc4Cl)oc23)[C@H](O)C1 [alvocidib]
Outline: (§1)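 Log-two fold change in thermal stability relative to solvent controls is reported from duplicates. For each sample, crude K562 extract from dounce-homogenised pellets in PBS pH 7.4 with 1 mM MgCl2, at 1 mg/mL protein, was treated with 10 μM compound for 30 min. Aliquots heated for 3 min across 48°C-58°C were pooled, brought to 0.5% NP-40 at 4°C and cleared at 21,000xg for 90 min. The supernatant was quantified by TMTpro 16plex LC-MS/MS with channel sums equalised.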

Tubastatin A = compound: CN1CCc2c(c3ccccc3n2Cc2ccc(C(=O)NO)cc2)C1 [Tubastatin A]
Outline: as §1

[1] = compound: CNC(=O)C1=CC=CC=C1NC2=NC(=NC=C2Cl)NC3=C(C=C(C=C3)N4CCOCC4)OC
Outline: as §1

defactinib = compound: CNC(=O)c1ccc(Nc2ncc(C(F)(F)F)c(NCc3nccnc3N(C)S(C)(=O)=O)n2)cc1 [defactinib]
Outline: as §1

[2] = compound: CNc1nc(-c2ccc3c(N)n[nH]c3c2)cc(N2C[C@@H](C(=O)NC3CCCCC3)CC[C@H]2C)n1
Outline: as §1

encorafenib = compound: COC(=O)N[C@@H](C)CNc1nccc(-c2cn(C(C)C)nc2-c2cc(Cl)cc(NS(C)(=O)=O)c2F)n1 [encorafenib]
Outline: as §1

[3] = compound: COC(=O)[C@H](CCSC)NC(=O)C1=C(C=C(C=C1)NC[C@H](CS)N)C2=CC=CC=C2
Outline: as §1

alisertib = compound: COc1cc(Nc2ncc3c(n2)-c2ccc(Cl)cc2C(c2c(F)cccc2OC)=NC3)ccc1C(=O)O [alisertib]
Outline: as §1

[4] = compound: COc1cc2nc(-c3cc(F)ccc3O)nc(N[C@@H]3CNC[C@H]3C(C)(C)O)c2cc1OC
Outline: as §1

gefitinib = compound: COc1cc2ncnc(Nc3ccc(F)c(Cl)c3)c2cc1OCCCN1CCOCC1 [gefitinib]
Outline: as §1

lapatinib = compound: CS(=O)(=O)CCNCc1ccc(-c2ccc3ncnc(Nc4ccc(OCc5cccc(F)c5)c(Cl)c4)c3c2)o1 [lapatinib]
Outline: as §1

pictilisib = compound: CS(=O)(=O)N1CCN(Cc2cc3nc(-c4cccc5[nH]ncc45)nc(N4CCOCC4)c3s2)CC1 [pictilisib]
Outline: as §1

crizotinib = compound: C[C@@H](Oc1cc(-c2cnn(C3CCNCC3)c2)cnc1N)c1c(Cl)ccc(F)c1Cl [crizotinib]
Outline: as §1

[5] = compound: C[C@H](C1=CC=C(C=C1)C(=O)NC2=C3C=CNC3=NC=C2)N
Outline: as §1

duvelisib = compound: C[C@H](Nc1ncnc2nc[nH]c12)c1cc2cccc(Cl)c2c(=O)n1-c1ccccc1 [duvelisib]
Outline: as §1

gandotinib = compound: Cc1cc(Nc2cc(CN3CCOCC3)c3nc(C)c(Cc4ccc(Cl)cc4F)n3n2)n[nH]1 [gandotinib]
Outline: as §1

tozasertib = compound: Cc1cc(Nc2cc(N3CCN(C)CC3)nc(Sc3ccc(NC(=O)C4CC4)cc3)n2)n[nH]1 [tozasertib]
Outline: as §1

doramapimod = compound: Cc1ccc(-n2nc(C(C)(C)C)cc2NC(=O)Nc2ccc(OCCN3CCOCC3)c3ccccc23)cc1 [doramapimod]
Outline: as §1

bafetinib = compound: Cc1ccc(NC(=O)c2ccc(CN3CC[C@H](N(C)C)C3)c(C(F)(F)F)c2)cc1Nc1nccc(-c2cncnc2)n1 [bafetinib]
Outline: as §1

[6] = compound: Cc1cccc(CC(=O)N2CCc3c2ccc(-c2cn(C)c4ncnc(N)c24)c3F)n1
Outline: as §1

Row | Target | log2 fold change (alvocidib) | log2 fold change (Tubastatin A) | log2 fold change [1] | log2 fold change (defactinib) | log2 fold change [2] | log2 fold change (encorafenib) | log2 fold change [3] | log2 fold change (alisertib) | log2 fold change [4] | log2 fold change (gefitinib) | log2 fold change (lapatinib) | log2 fold change (pictilisib) | log2 fold change (crizotinib) | log2 fold change [5] | log2 fold change (duvelisib) | log2 fold change (gandotinib) | log2 fold change (tozasertib) | log2 fold change (doramapimod) | log2 fold change (bafetinib) | log2 fold change [6]
1 | PRDX1 (UniProt Q06830) | inactive: -0.027 | inactive: 0.024 | inactive: 0.028 | inactive: -0.011 | inactive: 0.027 | inactive: -0.04 | inactive: -0.041 | inactive: 0.001 | inactive: 0.021 | inactive: -0.049 | inactive: 0.009 | inactive: 0.021 | inactive: 0.034 | inactive: -0.058 | inactive: -0.002 | inactive: 0.096 | inactive: -0.014 | inactive: -0.034 | inactive: 0.035 | inactive: 0.088
2 | PRKD2 isoform 3 (UniProt Q9BZL6) | inactive: 0.01 | inactive: -0.145 | inactive: -0.125 | inactive: 0.24 | inactive: 0.024 | inactive: 0.091 | inactive: -0.001 | inactive: -0.028 | inactive: 0.238 | inactive: -0.165 | inactive: 0.087 | inactive: -0.009 | inactive: -0.043 | inactive: -0.047 | inactive: 0.05 | inactive: -0.15 | inactive: 0.019 | inactive: -0.002 | inactive: 0.02 | inactive: -0.01
3 | PRPF4B (UniProt Q13523) | inactive: -0.019 | inactive: 0.004 | inactive: 0.019 | inactive: -0.034 | inactive: 0.031 | inactive: -0.005 | inactive: 0.043 | inactive: 0.013 | inactive: -0.01 | inactive: 0.017 | inactive: -0.029 | inactive: 0.011 | inactive: 0.002 | inactive: -0.034 | inactive: -0.024 | inactive: -0.029 | inactive: 0.065 | inactive: 0.003 | inactive: -0.094 | inactive: 0.033
4 | PREP (UniProt P48147) | inactive: 0.018 | inactive: -0.021 | inactive: 0.018 | inactive: 0.005 | inactive: -0.019 | inactive: -0.024 | active: 0.361 | inactive: -0.011 | inactive: 0.013 | inactive: -0.012 | inactive: -0.024 | inactive: -0.013 | inactive: -0.016 | inactive: 0.009 | inactive: 0.043 | inactive: -0.042 | inactive: -0.012 | inactive: -0.001 | inactive: -0.004 | inactive: -0.01
5 | PPP2R5A (UniProt Q15172) | inactive: 0.063 | inactive: -0.053 | inactive: 0.004 | inactive: 0.041 | inactive: -0.034 | inactive: -0.01 | inactive: 0.132 | inactive: -0.006 | inactive: -0.008 | inactive: -0.068 | inactive: -0.027 | inactive: -0.022 | inactive: -0.072 | inactive: 0.07 | inactive: -0.018 | inactive: -0.211 | inactive: 0.003 | inactive: -0.012 | inactive: -0.043 | inactive: -0.051
6 | PPP2R5D (UniProt Q14738) | inactive: 0.052 | inactive: -0.036 | inactive: 0.023 | inactive: 0.018 | inactive: -0.051 | inactive: -0.028 | inactive: 0.029 | inactive: 0 | inactive: 0.011 | inactive: 0.003 | inactive: -0.018 | inactive: -0.055 | inactive: -0.024 | inactive: 0.015 | inactive: 0.059 | inactive: -0.071 | inactive: -0.01 | inactive: -0.02 | inactive: -0.024 | inactive: -0.017
7 | PRC1 (UniProt O43663) | inactive: 0.002 | inactive: -0.157 | inactive: 0.043 | inactive: -0.012 | inactive: 0.012 | inactive: 0.031 | active: 0.255 | inactive: 0.045 | inactive: -0.032 | inactive: 0.049 | inactive: -0.014 | inactive: -0.007 | inactive: -0.109 | inactive: 0.023 | inactive: 0.059 | inactive: -0.003 | inactive: 0.017 | inactive: 0.004 | inactive: -0.079 | inactive: 0.025
8 | PPM1F (UniProt P49593) | inactive: 0.003 | inactive: 0.058 | inactive: 0 | inactive: 0.005 | inactive: -0.067 | inactive: 0.001 | inactive: 0.054 | inactive: 0.021 | inactive: -0.002 | inactive: -0.014 | inactive: 0.012 | inactive: 0 | inactive: -0.004 | inactive: 0.032 | inactive: 0.024 | inactive: -0.01 | inactive: -0.002 | inactive: -0.004 | inactive: -0.017 | inactive: 0.039
9 | PPIF (UniProt P30405) | inactive: -0.046 | inactive: 0.041 | inactive: -0.013 | inactive: -0.009 | inactive: 0.064 | inactive: -0.03 | inactive: -0.024 | inactive: 0.009 | inactive: 0.024 | inactive: 0.004 | inactive: -0.02 | inactive: 0.006 | inactive: -0.055 | inactive: -0.176 | inactive: 0.013 | inactive: 0.103 | inactive: 0.01 | inactive: -0.007 | inactive: -0.011 | inactive: 0.1
10 | PPP1CB (UniProt P62140) | inactive: -0.038 | inactive: -0.003 | inactive: 0.07 | inactive: -0.027 | inactive: -0.003 | inactive: -0.032 | inactive: -0.009 | inactive: 0.004 | inactive: 0 | inactive: 0.016 | inactive: 0.005 | inactive: -0.014 | inactive: 0.02 | inactive: -0.024 | inactive: -0.016 | inactive: 0.007 | inactive: 0.037 | inactive: -0.007 | inactive: -0.043 | inactive: 0.007
11 | PRPF40A (UniProt O75400) | inactive: -0.02 | inactive: -0.004 | inactive: -0.014 | inactive: 0.014 | inactive: 0.025 | inactive: 0.081 | inactive: -0.023 | inactive: -0.007 | inactive: -0.02 | inactive: -0.02 | inactive: 0.003 | inactive: 0.019 | inactive: 0.072 | inactive: 0.013 | inactive: -0.015 | inactive: 0.027 | inactive: -0.003 | inactive: 0.073 | inactive: 0.046 | inactive: -0.038
12 | PRKAR1A (UniProt P10644) | inactive: 0.004 | inactive: -0.048 | inactive: -0.049 | inactive: 0.004 | inactive: -0.088 | inactive: 0.012 | inactive: 0.042 | inactive: -0.015 | inactive: 0.019 | inactive: -0.015 | inactive: -0.038 | inactive: 0.036 | inactive: -0.008 | inactive: 0.011 | inactive: 0.004 | inactive: -0.104 | inactive: 0.01 | inactive: 0.035 | inactive: 0.03 | inactive: -0.022
13 | PRKCI (UniProt P41743) | inactive: 0.008 | inactive: -0.029 | inactive: 0.017 | inactive: -0.058 | inactive: 0.002 | inactive: 0.018 | inactive: 0.015 | inactive: 0.005 | inactive: 0.005 | inactive: 0.041 | inactive: -0.015 | inactive: -0.013 | inactive: -0.002 | inactive: 0.016 | inactive: -0.005 | inactive: 0.017 | inactive: -0.042 | inactive: 0.021 | inactive: -0.006 | inactive: -0.035
14 | PPP1R12C isoform 4 (UniProt Q9BZL4) | inactive: 0.012 | inactive: -0.031 | inactive: 0.035 | inactive: -0.005 | inactive: -0.003 | inactive: -0.015 | inactive: -0.022 | inactive: -0.11 | inactive: 0.012 | inactive: 0.119 | inactive: 0.045 | inactive: 0.017 | inactive: -0.047 | inactive: -0.06 | inactive: 0.014 | inactive: 0.034 | inactive: 0.008 | inactive: -0.005 | inactive: -0.001 | inactive: 0.078
15 | PRDX4 (UniProt Q13162) | inactive: -0.073 | inactive: 0.012 | inactive: -0.027 | inactive: -0.013 | inactive: -0.014 | inactive: 0.019 | inactive: -0.037 | inactive: 0.015 | inactive: 0.003 | inactive: -0.001 | inactive: -0.01 | inactive: 0.026 | inactive: 0.053 | inactive: -0.161 | inactive: 0.026 | inactive: 0.059 | inactive: 0.036 | inactive: 0.023 | inactive: -0.007 | inactive: 0.053
16 | PPP1R8 (UniProt Q12972) | inactive: -0.095 | inactive: 0.028 | inactive: -0.025 | inactive: -0.003 | inactive: 0.044 | inactive: 0.028 | inactive: -0.049 | inactive: 0.022 | inactive: -0.012 | inactive: -0.05 | inactive: 0.025 | inactive: -0.008 | inactive: 0.021 | inactive: -0.236 | inactive: -0.035 | inactive: 0.108 | inactive: -0.014 | inactive: -0.011 | inactive: -0.01 | inactive: 0.091

Just log2 fold change (encorafenib), log2 fold change (gefitinib) and log2 fold change (gandotinib), for some of the entries so far:

| Row | Target | log2 fold change (encorafenib) | log2 fold change (gefitinib) | log2 fold change (gandotinib) |
| --- | --- | --- | --- | --- |
| 10 | PPP1CB (UniProt P62140) | inactive: -0.032 | inactive: 0.016 | inactive: 0.007 |
| 11 | PRPF40A (UniProt O75400) | inactive: 0.081 | inactive: -0.02 | inactive: 0.027 |
